Data: article doi:10.1101/481754
Changes are numbered by the printed parent chain. Numbers in names are those of the source. These are yes or no findings as the source states them, for the method shown. Some results given as binding are weak or reduced against the parent protein; the word gives no strength. For part of these data: Sequences can lack the tags named with a protein. One block for each molecule: values may come before it.

Chains of the proteins cited; added tags and fusions are not shown. Lines headed by an entry give the natural chain unless they say otherwise; changes in a name come on top.
UniProt P62491, whole entry: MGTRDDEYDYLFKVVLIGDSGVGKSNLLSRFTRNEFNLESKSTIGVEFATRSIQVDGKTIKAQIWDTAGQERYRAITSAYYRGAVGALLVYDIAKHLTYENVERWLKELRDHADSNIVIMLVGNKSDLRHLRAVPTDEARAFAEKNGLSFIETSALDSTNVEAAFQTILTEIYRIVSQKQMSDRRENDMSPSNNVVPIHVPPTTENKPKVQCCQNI
UniProt P51149, whole entry: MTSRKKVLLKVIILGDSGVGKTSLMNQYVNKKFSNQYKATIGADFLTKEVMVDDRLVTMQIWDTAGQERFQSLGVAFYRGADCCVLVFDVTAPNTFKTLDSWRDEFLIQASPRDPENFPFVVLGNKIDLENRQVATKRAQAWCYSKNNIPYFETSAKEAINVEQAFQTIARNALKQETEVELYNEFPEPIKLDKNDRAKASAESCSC
UniProt O43399, whole entry: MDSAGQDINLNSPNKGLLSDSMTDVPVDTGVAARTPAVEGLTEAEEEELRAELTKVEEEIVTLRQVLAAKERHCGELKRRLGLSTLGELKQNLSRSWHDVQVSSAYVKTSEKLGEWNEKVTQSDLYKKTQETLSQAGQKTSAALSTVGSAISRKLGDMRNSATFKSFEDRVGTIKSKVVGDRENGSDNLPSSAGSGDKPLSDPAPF
UniProt P61026, whole entry: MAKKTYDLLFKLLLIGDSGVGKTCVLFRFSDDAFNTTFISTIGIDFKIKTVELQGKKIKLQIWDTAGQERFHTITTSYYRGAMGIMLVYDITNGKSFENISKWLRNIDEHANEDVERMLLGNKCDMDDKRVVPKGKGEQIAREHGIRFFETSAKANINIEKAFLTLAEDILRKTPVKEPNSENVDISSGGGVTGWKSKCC
UniProt P61019, whole entry: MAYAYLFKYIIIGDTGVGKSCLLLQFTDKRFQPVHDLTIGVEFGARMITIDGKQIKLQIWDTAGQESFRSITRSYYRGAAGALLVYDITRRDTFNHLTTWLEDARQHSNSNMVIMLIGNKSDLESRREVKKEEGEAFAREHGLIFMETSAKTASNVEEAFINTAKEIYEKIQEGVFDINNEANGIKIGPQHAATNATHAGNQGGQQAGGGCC
UniProt Q9H0U4, whole entry: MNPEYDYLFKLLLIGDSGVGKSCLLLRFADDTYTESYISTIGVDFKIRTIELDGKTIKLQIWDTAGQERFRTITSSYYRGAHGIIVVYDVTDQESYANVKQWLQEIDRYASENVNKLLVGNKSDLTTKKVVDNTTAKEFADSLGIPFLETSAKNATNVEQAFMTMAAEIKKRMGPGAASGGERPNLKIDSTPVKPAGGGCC
UniProt Q9H082, whole entry: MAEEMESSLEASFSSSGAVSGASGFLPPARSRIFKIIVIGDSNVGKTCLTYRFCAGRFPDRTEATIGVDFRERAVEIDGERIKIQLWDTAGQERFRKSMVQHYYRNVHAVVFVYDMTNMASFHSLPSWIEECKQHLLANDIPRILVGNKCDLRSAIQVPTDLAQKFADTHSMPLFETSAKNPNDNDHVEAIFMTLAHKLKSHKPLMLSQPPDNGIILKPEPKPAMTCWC

Experiments:
Test in all cases: co-rerouting to mitochondria
GFP-FKBP-Rab11a = GFP-FKBP-Rab11a (UniProt P62491)
GFP-FKBP-Rab7a = GFP-FKBP-Rab7a (UniProt P51149)
GFP-FKBP-Rab25 = target: T1, GFP-FKBP-Rab25 (UniProt P57735)
T1 sequence: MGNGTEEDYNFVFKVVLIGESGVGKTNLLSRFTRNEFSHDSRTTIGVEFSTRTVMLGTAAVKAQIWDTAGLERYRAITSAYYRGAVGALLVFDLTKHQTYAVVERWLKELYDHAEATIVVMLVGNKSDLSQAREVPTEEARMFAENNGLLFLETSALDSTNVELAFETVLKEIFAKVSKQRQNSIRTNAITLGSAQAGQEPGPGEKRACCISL

[1] = target: mCherry-FKBP-TPD54 (human) (UniProt O43399)

Molecule: GFP-Rab7a (from UniProt P51149 1-207)
binding [1]: no binding

Molecule: GFP-Rab1a Q70L (from UniProt P62820 1-205)
binding [1]: binds

Molecule: GFP-Rab10 (from UniProt P61026 1-200)
binding [1]: binds

Molecule: GFP-Rab11a (from UniProt P62491 1-216)
binding [1]: binds

Molecule: GFP-Rab2a (from UniProt P61019 1-212)
binding [1]: binds

Molecule: GFP-Rab1a S25N (from UniProt P62820 1-205)
binding [1]: no binding

Molecule: GFP-Rab1a (from UniProt P62820 1-205)
binding [1]: binds

Molecule: GFP-Rab1b (from UniProt Q9H0U4 1-201)
binding [1]: binds

B1: GFP-Rab25 (protein, UniProt P57735 1-213)
chain: T1 sequence
binding [1]: binds

B4: GFP-Rab12 (protein, UniProt Q6IQ22 1-340)
chain: MLLPLLRSSCFPSSSPGGGGGSGGGGGGGDPGAESRPAAQLQRGAHGPPGPLQRAEAEPGADPPRAAEAEGAPGPGARSRGAGGGGRRAEREPHACMDPGAALQRRAGGGGGLGAGSPALSGGQGRRRKQPPRPADFKLQVIIIGSRGVGKTSLMERFTDDTFCEACKSTVGVDFKIKTVELRGKKIRLQIWDTAGQERFNSITSAYYRSAKGIILVYDITKKETFDDLPKWMKMIDKYASEDAELLLVGNKLDCETDREITRQQGEKFAQQITGMRFCEASAKDNFNVDEIFLKLVDDILKKMPLDILRNELSNSILSLQPEPEIPPELPPPRPHVRCC
binding [1]: binds

B12: GFP-Rab19 (protein, UniProt A4D1S5 1-217)
chain: MHFSSSARAADENFDYLFKIILIGDSNVGKTCVVQHFKSGVYTETQQNTIGVDFTVRSLDIDGKKVKMQVWDTAGQERFRTITQSYYRSAHAAIIAYDLTRRSTFESIPHWIHEIEKYGAANVVIMLIGNKCDLWEKRHVLFEDACTLAEKYGLLAVLETSAKESKNIEEVFVLMAKELIARNSLHLYGESALNGLPLDSSPVLMAQGPSEKTHCTC
binding [1]: binds

Now from value to molecule:

binding (GFP-FKBP-Rab11a): binds
binding (GFP-FKBP-Rab7a): no binding
binding (GFP-FKBP-Rab25): binds
Molecule: mCherry-TPD54 (from UniProt O43399 1-206)

binding [1]: binds
Molecule: GFP-Rab33b (from UniProt Q9H082 1-229)

binding [1]: binds
B2: GFP-Rab26 (protein, UniProt Q9ULW5 1-256)
chain: MSRKKTPKSKGASTPAASTLPTANGARPARSGTALSGPDAPPNGPLQPGRPSLGGGVDFYDVAFKVMLVGDSGVGKTCLLVRFKDGAFLAGTFISTVGIDFRNKVLDVDGVKVKLQMWDTAGQERFRSVTHAYYRDAHALLLLYDVTNKASFDNIQAWLTEIHEYAQHDVALMLLGNKVDSAHERVVKREDGEKLAKEYGLPFMETSAKTGLNVDLAFTAIAKELKQRSMKAPSEPRFRLHDYVKREGRGASCCRP

binding [1]: binds
B3: GFP-Rab43 (protein, UniProt Q86YS6 1-212)
chain: MAGPGPGPGDPDEQYDFLFKLVLVGDASVGKTCVVQRFKTGAFSERQGSTIGVDFTMKTLEIQGKRVKLQIWDTAGQERFRTITQSYYRSANGAILAYDITKRSSFLSVPHWIEDVRKYAGSNIVQLLIGNKSDLSELREVSLAEAQSLAEHYDILCAIETSAKDSSNVEEAFLRVATELIMRHGGPLFSEKSPDHIQLNSKDIGEGWGCGC

binding [1]: binds
B5: GFP-Rab30 Q68L (protein, UniProt Q15771 1-203)
chain: MSMEDYDFLFKIVLIGNAGVGKTCLVRRFTQGLFPPGQGATIGVDFMIKTVEINGEKVKLQIWDTAGLERFRSITQSYYRSANALILTYDITCEESFRCLPEWLREIEQYASNKVITVLVGNKIDLAERREVSQQRAEEFSEAQDMYYLETSAKESDNVEKLFLDLACRLISEARQNTLVNNVSSPLPGEGKSISYLTCCNFN

binding [1]: binds
B6: GFP-Rab30 (protein, UniProt Q15771 1-203)
chain: B5 chain with L68Q

binding [1]: no binding
B7: GFP-Rab30 T23N (protein, UniProt Q15771 1-203)
chain: B5 chain with T23N, L68Q

binding [1]: binds
B8: GFP-Rab37 (protein, UniProt Q96AX2 1-223)
chain: MTGTPGAVATRDGEAPERSPPCSPSYDLTGKVMLLGDTGVGKTCFLIQFKDGAFLSGTFIATVGIDFRNKVVTVDGVRVKLQIWDTAGQERFRSVTHAYYRDAQALLLLYDITNKSSFDNIRAWLTEIHEYAQRDVVIMLLGNKADMSSERVIRSEDGETLAREYGVPFLETSAKTGMNVELAFLAIAKELKYRAGHQADEPSFQIRDYVESQKKRSSCCSFM

binding [1]: binds
B9: GFP-Rab45 (protein, UniProt Q8IZ41 1-740)
chain: MEADGDGEELARLRSVFAACDANRSGRLEREEFRALCTELRVRPADAEAVFQRLDADRDGAITFQEFARGFLGSLRGGRRRDWGPLDPAPAVSEAGPETHDSEEDEGDEDAAAALATSCGPASPGRAWQDFQARLGDEAKFIPREEQVSTLYQNINLVEPRLIQPYEHVIKNFIREIRLQSTEMENLAIAVKRAQDKAAMQLSELEEEMDQRIQAAEHKTRKDEKRKAEEALSDLRRQYETEVGDLQVTIKKLRKLEEQSKRVSQKEDVAALKKQIYDLSMENQKVKKDLLEAQTNIAFLQSELDALKSDYADQSLNTERDLEIIRAYTEDRNSLERQIEILQTANRKLHDSNDGLRSALENSYSKFNRSLHINNISPGNTISRSSPKFIGHSPQPLGYDRSSRSSYVDEDCDSLALCDPLQRTNCEVDSLPESCFDSGLSTLRDPNEYDSEVEYKHQRGFQRSHGVQESFGGDASDTDVPDIRDEETFGLEDVASVLDWKPQGSVSEGSIVSSSRKPISALSPQTDLVDDNAKSFSSQKAYKIVLAGDAAVGKSSFLMRLCKNEFRENISATLGVDFQMKTLIVDGERTVLQLWDTAGQERFRSIAKSYFRKADGVLLLYDVTCEKSFLNIREWVDMIEDAAHETVPIMLVGNKADIRDTAATEGQKCVPGHFGEKLAMTYGALFCETSAKDGSNIVEAVLHLAREVKKRTDKDDSRSITNLTGTNSKKSPQMKNCCNG

binding [1]: binds
B10: GFP-Rab33a (protein, UniProt Q14088 1-237)
chain: MAQPILGHGSLQPASAAGLASLELDSSLDQYVQIRIFKIIVIGDSNVGKTCLTFRFCGGTFPDKTEATIGVDFREKTVEIEGEKIKVQVWDTAGQERFRKSMVEHYYRNVHAVVFVYDVTKMTSFTNLKMWIQECNGHAVPPLVPKVLVGNKCDLREQIQVPSNLALKFADAHNMLLFETSAKDPKESQNVESIFMCLACRLKAQKSLLYRDAERQQGKVQKLEFPQEANSKTSCPC

binding [1]: binds
B11: GFP-TPD52 (protein, UniProt P55327 1-224)
chain: MDCREMDLYEDYQSPFDFDAGVNKSYLYLSPSGNSSPPGSPTLQKFGLLRTDPVPEEGEDVAATISATETLSEEEQEELRRELAKVEEEIQTLSQVLAAKEKHLAEIKRKLGINSLQELKQNIAKGWQDVTATSAYKKTSETLSQAGQKASAAFSSVGSVITKKLEDVKNSPTFKSFEEKVENLKSKVGGTKPAGGDFGEVLNSAANASATTTEPLPEKTQESL
